The other results are listed elsewhere or left out.
These targets were tested with Cn1cncc1[C@@](N)(c1ccc(Cl)cc1)c1ccc2c(c1)c(-c1cccc(Cl)c1)cc(=O)n2C [tipifarnib] (assay: log2 fold change, soluble protein after heating vs DMSO (PISA); higher = thermal stabilisation; K562 lysate, 10 uM; active = over 0.2 and 3.5 SD of the protein, either way, in both replicates (recomputed)).
Method in brief: (§1)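 K562 pellets were dounce-homogenised in PBS pH 7.4 with 1 mM MgCl2, and the crude extract at 1 mg/mL protein was treated with 10 μM compound for 30 min. Aliquots were heated for 3 min across 48°C-58°C, pooled, and brought to 0.5% NP-40 at 4°C; soluble protein was the supernatant after 21,000xg for 90 min. Soluble protein was quantified by TMTpro 16plex LC-MS/MS with channel sums equalised, and reported as log2 fold change in thermal stability against DMSO controls, with values from duplicates.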

The chains behind the UniProt entries cited, without tags or fusion partners. Where a name states a change or a piece, a line headed by the entry shows the natural chain unless it says otherwise.
UniProt Q9P2X3: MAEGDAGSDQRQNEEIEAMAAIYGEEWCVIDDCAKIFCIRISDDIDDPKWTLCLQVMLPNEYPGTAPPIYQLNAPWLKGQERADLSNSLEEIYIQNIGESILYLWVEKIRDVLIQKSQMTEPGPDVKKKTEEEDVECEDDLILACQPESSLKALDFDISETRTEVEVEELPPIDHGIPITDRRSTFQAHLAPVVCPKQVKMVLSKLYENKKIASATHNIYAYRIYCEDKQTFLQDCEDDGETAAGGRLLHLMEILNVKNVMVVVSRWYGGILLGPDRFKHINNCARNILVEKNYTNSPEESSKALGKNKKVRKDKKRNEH
UniProt Q70UQ0: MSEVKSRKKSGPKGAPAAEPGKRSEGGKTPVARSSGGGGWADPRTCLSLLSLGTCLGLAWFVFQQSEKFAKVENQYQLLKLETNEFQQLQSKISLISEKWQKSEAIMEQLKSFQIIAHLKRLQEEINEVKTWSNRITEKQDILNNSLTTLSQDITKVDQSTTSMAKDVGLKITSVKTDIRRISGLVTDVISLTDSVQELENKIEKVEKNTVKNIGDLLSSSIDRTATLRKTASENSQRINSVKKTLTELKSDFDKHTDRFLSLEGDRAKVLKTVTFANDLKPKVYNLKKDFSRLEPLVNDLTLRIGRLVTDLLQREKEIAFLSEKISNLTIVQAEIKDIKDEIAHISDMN
UniProt Q8IY31, whole entry, looked up: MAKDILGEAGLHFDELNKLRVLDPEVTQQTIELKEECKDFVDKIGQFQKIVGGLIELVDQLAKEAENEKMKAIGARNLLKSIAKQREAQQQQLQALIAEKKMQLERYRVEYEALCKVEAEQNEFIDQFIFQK
UniProt P22692: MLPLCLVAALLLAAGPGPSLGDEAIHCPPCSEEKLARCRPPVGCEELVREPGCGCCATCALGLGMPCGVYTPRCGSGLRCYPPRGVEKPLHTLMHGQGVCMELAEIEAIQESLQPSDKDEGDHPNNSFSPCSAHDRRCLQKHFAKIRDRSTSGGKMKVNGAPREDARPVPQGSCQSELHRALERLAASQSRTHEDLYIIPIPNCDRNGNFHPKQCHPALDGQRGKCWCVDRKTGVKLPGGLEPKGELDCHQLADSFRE
UniProt P05362: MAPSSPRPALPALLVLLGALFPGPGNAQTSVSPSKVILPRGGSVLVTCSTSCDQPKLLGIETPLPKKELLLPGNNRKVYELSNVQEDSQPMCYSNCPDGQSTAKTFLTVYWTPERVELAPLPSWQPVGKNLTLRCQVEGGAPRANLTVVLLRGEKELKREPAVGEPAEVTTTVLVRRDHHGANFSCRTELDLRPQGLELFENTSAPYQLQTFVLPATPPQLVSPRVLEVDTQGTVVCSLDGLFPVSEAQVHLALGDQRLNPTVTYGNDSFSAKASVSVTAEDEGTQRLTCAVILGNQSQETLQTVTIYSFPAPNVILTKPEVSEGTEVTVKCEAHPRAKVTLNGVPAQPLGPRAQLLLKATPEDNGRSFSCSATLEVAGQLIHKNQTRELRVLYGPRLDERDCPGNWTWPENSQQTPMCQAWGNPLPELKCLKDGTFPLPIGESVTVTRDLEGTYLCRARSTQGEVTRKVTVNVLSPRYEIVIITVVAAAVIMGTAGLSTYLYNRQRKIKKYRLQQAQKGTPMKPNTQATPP
UniProt Q9NSE4: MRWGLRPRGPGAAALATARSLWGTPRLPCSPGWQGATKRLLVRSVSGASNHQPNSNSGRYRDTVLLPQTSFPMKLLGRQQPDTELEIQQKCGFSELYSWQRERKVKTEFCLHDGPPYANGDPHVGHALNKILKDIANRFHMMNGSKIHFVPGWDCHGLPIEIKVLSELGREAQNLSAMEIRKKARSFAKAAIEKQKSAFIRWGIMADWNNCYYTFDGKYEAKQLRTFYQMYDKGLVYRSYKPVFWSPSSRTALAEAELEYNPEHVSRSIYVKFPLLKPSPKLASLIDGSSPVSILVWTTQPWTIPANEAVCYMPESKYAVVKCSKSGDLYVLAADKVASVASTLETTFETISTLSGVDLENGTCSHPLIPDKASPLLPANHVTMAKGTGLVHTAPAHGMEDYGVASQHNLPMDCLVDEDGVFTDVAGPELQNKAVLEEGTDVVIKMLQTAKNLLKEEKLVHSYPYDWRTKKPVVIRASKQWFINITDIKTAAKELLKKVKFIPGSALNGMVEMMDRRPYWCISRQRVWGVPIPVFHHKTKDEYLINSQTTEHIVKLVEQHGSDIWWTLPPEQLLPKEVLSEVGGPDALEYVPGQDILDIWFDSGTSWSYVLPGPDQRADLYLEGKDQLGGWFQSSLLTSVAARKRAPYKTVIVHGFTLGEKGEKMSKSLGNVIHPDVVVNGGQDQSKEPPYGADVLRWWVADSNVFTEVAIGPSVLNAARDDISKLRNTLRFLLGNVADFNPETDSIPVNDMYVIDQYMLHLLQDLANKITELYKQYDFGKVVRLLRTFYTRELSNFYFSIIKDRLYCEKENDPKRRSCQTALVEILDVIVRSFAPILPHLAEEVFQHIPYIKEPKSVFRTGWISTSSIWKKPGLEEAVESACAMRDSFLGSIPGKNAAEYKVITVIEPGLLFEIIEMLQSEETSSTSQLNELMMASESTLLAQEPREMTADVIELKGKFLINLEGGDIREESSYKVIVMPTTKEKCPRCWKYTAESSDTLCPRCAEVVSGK
UniProt Q9Y2F5: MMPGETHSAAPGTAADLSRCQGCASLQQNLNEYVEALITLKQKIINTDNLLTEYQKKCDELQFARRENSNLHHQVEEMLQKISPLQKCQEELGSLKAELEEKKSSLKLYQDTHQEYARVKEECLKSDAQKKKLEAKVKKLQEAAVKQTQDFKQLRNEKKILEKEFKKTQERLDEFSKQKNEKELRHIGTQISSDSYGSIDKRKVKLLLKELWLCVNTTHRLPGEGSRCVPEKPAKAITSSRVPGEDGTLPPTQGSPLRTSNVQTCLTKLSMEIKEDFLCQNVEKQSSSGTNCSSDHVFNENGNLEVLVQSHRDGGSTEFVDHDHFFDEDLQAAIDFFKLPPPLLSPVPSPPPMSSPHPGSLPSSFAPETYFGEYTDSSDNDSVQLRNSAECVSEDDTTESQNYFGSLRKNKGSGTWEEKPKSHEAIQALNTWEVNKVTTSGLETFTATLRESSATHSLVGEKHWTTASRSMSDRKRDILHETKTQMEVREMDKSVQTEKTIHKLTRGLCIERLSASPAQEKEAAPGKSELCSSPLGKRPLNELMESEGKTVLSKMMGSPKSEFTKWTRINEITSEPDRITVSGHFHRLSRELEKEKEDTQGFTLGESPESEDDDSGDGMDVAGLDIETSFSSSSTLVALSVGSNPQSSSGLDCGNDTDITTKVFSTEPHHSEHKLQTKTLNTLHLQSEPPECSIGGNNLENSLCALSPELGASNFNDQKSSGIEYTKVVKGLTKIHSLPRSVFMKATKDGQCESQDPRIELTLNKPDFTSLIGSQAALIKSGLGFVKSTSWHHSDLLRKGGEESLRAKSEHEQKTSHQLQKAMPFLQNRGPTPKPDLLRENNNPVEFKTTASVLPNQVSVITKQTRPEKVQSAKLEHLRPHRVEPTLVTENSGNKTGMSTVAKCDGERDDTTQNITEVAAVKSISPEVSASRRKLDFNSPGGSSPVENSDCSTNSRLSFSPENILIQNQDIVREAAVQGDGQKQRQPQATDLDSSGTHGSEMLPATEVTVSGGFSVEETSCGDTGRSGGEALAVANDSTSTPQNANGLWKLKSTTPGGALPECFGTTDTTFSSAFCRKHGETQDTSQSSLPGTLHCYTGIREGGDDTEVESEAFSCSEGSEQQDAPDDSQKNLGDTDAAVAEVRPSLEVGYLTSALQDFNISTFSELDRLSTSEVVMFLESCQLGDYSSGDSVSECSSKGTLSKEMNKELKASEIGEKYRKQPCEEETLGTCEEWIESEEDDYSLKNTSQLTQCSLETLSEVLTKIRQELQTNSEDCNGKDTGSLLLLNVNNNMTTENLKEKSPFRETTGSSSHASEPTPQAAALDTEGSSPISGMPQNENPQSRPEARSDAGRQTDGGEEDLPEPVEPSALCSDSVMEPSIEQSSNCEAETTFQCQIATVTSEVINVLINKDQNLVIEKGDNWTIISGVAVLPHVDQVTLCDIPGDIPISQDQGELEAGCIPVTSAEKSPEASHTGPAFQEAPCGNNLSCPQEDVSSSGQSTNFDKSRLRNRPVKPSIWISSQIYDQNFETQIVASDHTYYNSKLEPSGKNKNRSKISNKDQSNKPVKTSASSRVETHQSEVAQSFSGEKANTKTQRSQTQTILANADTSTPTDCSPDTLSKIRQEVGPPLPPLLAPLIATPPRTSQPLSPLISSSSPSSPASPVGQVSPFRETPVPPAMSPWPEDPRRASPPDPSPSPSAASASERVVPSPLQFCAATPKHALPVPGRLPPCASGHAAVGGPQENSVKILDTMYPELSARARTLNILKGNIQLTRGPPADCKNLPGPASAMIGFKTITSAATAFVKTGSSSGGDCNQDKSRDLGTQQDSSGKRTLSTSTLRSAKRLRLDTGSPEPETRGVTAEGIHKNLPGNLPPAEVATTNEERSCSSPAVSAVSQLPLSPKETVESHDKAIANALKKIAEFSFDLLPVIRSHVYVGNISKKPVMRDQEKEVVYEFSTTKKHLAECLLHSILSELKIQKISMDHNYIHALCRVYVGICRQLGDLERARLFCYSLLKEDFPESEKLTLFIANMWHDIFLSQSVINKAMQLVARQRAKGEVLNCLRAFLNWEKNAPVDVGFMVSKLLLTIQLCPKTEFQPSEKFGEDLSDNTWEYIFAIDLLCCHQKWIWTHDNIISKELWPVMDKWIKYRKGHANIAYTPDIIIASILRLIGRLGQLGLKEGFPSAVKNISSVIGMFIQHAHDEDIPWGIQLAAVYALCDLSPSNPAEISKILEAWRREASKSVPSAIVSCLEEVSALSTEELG
UniProt P78318: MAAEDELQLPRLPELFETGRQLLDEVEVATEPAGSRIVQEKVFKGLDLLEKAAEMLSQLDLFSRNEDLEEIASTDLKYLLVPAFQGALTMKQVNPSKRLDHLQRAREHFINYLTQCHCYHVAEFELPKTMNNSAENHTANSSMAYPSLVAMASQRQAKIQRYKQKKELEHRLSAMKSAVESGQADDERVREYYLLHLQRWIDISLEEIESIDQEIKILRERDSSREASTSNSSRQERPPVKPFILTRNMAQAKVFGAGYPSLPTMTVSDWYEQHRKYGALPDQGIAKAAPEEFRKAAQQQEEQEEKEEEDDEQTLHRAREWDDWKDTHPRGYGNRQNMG
UniProt Q9P2H3, whole entry, looked up: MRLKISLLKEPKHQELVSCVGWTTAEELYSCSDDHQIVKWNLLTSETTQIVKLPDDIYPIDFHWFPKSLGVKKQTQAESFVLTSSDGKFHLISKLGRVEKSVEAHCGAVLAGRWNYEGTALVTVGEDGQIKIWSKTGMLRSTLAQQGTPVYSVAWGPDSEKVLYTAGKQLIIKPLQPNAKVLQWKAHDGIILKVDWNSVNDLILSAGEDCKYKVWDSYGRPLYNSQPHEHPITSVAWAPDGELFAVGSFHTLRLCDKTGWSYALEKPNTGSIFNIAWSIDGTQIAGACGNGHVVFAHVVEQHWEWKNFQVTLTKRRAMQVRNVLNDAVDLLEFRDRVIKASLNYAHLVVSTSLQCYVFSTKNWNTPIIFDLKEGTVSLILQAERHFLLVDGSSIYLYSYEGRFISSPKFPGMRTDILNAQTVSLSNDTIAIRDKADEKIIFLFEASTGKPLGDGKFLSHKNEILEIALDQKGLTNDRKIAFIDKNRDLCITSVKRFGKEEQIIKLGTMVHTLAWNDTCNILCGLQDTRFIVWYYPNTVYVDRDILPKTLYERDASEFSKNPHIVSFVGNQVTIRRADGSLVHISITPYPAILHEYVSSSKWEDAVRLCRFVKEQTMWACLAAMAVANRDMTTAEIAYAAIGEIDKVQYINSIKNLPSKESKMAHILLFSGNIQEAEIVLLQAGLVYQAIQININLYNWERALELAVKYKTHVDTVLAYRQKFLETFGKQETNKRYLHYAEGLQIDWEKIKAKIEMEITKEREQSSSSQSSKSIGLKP
UniProt Q13422: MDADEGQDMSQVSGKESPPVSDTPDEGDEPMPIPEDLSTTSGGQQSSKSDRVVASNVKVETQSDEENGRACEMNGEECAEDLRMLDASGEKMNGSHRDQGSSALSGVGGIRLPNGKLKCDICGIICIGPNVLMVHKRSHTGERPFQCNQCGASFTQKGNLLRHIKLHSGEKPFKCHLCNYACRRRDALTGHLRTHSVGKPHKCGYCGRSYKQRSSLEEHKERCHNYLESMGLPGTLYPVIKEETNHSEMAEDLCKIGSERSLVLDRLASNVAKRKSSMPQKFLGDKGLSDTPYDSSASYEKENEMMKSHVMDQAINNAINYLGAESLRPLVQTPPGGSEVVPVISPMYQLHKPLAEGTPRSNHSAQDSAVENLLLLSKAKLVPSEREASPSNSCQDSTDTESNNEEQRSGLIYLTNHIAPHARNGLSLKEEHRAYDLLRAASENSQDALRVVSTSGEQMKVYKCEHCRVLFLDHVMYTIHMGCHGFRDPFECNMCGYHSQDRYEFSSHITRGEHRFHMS

| Target | log2 fold change |
| --- | --- |
| HYOU1 (UniProt J3QL06) | inactive: 0.166 |
| IMPACT (UniProt Q9P2X3) | inactive: -0.13 |
| ILF3 isoform 7 (UniProt Q12906) | inactive: 0.016 |
| IARS (UniProt P41252) | inactive: -0.003 |
| HSPA8 (UniProt E9PN89) | inactive: 0.006 |
| IKBIP (UniProt Q70UQ0) | inactive: -0.049 |
| IFT122 isoform 5 (UniProt Q9HBG6) | inactive: 0.143 |
| IFT20 isoform 2 (UniProt Q8IY31) | inactive: -0.143 |

These targets were tested with NC(=O)Nc1cc(-c2cccc(F)c2)sc1C(=O)N[C@H]1CCCNC1 in the same assay as above.
Method in brief: as §1

| Target | log2 fold change |
| --- | --- |
| ICE2 (UniProt Q659A1) | inactive: 0.026 |
| ICMT (UniProt O60725) | inactive: -0.041 |
| IGFBP4 (UniProt P22692) | inactive: -0.021 |
| INF2 (UniProt Q27J81) | inactive: 0.023 |
| IMPDH2 (UniProt H0Y4R1) | inactive: 0.02 |
| IDH3B (UniProt O43837) | inactive: -0.008 |
| IGSF3 (UniProt O75054) | inactive: 0.03 |
| ICAM1 (UniProt P05362) | inactive: 0.008 |
| INPPL1 (UniProt O15357) | inactive: 0.032 |
| HSPA8 (UniProt E9PK54) | inactive: 0.113 |
| HUS1 (UniProt O60921) | inactive: 0.01 |
| IARS2 (UniProt Q9NSE4) | inactive: 0.021 |
| IBA57 (UniProt Q5T440) | inactive: 0.004 |
| ING3 (UniProt Q9NXR8) | inactive: -0.006 |
| ICE1 (UniProt Q9Y2F5) | inactive: -0.143 |
| IGBP1 (UniProt P78318) | inactive: -0.017 |

| Target | log2 fold change |
| --- | --- |
| IFT80 isoform 3 (UniProt Q9P2H3) | inactive: -0.024 |
| HSPE1 (UniProt P61604) | inactive: -0.046 |
| IGF2R (UniProt P11717) | inactive: 0.002 |
| HTRA2 (UniProt O43464) | inactive: -0.006 |
| INPP1 (UniProt P49441) | inactive: 0.033 |
| IKZF1 (UniProt Q13422) | inactive: 0.037 |
| INO80E (UniProt Q8NBZ0) | inactive: 0.152 |
| INPP4A (UniProt Q96PE3) | inactive: 0.032 |
| HYOU1 (UniProt J3QL06) | inactive: -0.056 |
| IMPACT (UniProt Q9P2X3) | inactive: 0.11 |
| ILF3 isoform 7 (UniProt Q12906) | inactive: -0.01 |
| IARS (UniProt P41252) | inactive: 0.038 |
| HSPA8 (UniProt E9PN89) | inactive: 0 |
| IKBIP (UniProt Q70UQ0) | inactive: 0.012 |
| IFT122 isoform 5 (UniProt Q9HBG6) | inactive: -0.343 |
| IFT20 isoform 2 (UniProt Q8IY31) | inactive: 0.013 |

From the supplement of paper PMC10849652
